# Laboratory results reported in paper PMC10462666.
# Protein sequences, listed by entry. Tags and fused reporters are not part of them.
# UniProt Q15154: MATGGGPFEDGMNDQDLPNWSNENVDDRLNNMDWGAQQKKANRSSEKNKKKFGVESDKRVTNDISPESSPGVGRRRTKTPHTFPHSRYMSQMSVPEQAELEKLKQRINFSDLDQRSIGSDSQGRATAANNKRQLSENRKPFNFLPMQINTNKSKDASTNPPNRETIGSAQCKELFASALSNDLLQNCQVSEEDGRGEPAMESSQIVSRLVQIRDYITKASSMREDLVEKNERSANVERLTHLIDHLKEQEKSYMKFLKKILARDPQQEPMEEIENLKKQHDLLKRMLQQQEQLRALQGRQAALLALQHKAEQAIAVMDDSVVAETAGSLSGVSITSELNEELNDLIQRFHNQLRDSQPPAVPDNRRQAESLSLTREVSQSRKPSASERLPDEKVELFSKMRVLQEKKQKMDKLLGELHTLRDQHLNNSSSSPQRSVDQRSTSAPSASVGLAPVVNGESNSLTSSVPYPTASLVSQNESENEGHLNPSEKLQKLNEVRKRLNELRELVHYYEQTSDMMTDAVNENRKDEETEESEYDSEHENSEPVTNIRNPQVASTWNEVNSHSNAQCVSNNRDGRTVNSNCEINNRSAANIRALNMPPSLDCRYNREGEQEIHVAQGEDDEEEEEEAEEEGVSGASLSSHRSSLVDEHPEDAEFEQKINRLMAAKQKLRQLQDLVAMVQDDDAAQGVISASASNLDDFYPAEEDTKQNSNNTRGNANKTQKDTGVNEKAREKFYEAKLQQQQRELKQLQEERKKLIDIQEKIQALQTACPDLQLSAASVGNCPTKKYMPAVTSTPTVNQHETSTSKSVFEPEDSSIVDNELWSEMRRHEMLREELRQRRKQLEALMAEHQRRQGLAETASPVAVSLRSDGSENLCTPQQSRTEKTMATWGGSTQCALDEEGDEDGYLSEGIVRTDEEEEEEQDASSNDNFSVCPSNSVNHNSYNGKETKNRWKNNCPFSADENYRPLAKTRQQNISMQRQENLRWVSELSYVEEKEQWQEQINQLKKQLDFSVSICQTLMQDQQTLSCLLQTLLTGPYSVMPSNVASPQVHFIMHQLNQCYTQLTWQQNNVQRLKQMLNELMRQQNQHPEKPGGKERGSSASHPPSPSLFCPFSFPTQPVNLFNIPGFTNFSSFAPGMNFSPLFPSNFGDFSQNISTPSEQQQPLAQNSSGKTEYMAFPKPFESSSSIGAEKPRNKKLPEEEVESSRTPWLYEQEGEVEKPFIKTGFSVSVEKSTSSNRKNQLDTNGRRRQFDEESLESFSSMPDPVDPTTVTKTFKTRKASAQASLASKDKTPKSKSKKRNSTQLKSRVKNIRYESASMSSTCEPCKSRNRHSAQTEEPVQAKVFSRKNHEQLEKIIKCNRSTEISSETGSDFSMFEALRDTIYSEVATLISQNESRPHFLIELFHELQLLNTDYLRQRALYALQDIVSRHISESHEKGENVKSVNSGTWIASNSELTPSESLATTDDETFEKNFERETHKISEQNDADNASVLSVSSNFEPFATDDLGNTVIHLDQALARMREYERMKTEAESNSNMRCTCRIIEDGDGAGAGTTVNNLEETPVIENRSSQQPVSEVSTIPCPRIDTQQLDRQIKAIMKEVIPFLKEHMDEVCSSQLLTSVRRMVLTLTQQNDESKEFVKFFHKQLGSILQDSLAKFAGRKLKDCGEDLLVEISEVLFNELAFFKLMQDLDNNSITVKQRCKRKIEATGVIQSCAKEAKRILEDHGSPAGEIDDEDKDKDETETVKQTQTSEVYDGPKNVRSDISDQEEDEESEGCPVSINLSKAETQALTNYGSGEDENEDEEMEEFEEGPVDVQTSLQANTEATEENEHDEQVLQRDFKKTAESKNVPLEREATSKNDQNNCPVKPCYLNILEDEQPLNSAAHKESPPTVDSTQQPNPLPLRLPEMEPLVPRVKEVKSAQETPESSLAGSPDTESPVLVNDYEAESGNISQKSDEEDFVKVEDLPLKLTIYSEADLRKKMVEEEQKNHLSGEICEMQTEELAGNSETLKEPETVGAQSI
# UniProt O60884: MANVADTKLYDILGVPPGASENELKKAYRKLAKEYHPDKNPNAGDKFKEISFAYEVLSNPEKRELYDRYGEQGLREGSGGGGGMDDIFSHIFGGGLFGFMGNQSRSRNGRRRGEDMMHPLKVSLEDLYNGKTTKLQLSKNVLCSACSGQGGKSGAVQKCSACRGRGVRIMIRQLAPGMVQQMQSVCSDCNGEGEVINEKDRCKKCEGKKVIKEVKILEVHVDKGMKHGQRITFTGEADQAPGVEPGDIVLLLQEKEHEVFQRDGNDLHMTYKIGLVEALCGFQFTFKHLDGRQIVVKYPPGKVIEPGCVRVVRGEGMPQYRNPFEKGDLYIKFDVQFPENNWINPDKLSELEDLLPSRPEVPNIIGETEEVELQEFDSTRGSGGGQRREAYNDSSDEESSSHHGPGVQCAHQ
# Results are given in words; binding and its absence hold for the method and conditions named. In cells and extracts the contact can be indirect. Some entries that bind do so weakly or less than the wild type.
# Biological target: HA-tagged WT PCM1 (human) (UniProt Q15154)
# Assay: co-IP; lysate of HeLa cells expressing HA-tagged WT or 2AA PCM1; anti-HA antibody, Protein G agarose; Western blot for HSC70 and DNAJA2
substance,measurement,value
DnaJ heat shock protein (HSP40) family member A2 (DNAJA2) (from UniProt O60884 1-412),binding,binds
